The text below walks through data of PubChem BioAssay AID250 (DTP/NCI, 2004).

The list is a part of this screen's results and no random one: it is rich in T/C values a quarter to a half above the control, in often repeated tests (any T/C) and in doses without a T/C. Other doses and runs of a compound stand elsewhere. T/C is the treated group as % of the vehicle group. Where survival is the endpoint, this PubChem deposit counts one and a half times the control or more as active, and values a quarter to a half above the control carry no call in these data; other NCI protocols may use other cut-offs. Schedules are NCI's codes, taken here to give the interval after Q, in days (D) or hours (H), and the number of doses after X. Some schedules carry Z or #; the key to these is not given. Some doses were run more than once; their values stand side by side, smallest first. Some T/C values carry the count of animals alive at the toxicity check (mostly the fifth day); without a count, all were alive then.

The subject of this assay is BDF1 mice, L1210 leukemia sc. Description: NCI In Vivo Anticancer Drug Screen. Data for tumor model L1210 Leukemia (subcutaneous) in B6D2F1 (BDF1) mice. Conditions: higher T/C = longer survival. The procedure, abridged: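 Read-out: T/C ratio, i.e. survival or tumor size in treated mice over that in vehicle-treated controls, from mice bearing transplantable tumors.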
The mark [1] stands for this setting: T/C endpoint: median survival time, dose: 180.0 mg/kg/injection, schedule: Q01DX Z (sc), vehicle: methylcellulose (MC).

As for `O=C1CN(CCN2CC(=O)NC(=O)C2)CC(=O)N1`, the T/C is 145 % of control (T/C endpoint: median survival time, dose: 14.0 mg/kg/injection, schedule: Q03HX024 (sc), vehicle: Klucel (hydroxypropylcellulose) (HPC)); 125 % of control (T/C endpoint: median survival time, dose: 25.0 mg/kg/injection, schedule: Q01DX009 (sc), vehicle: steroid suspending solution); 130 % of control (T/C endpoint: median survival time, dose: 50.0 mg/kg/injection, schedule: Q01DX009 (ip), vehicle: steroid suspending solution); 135 % of control (T/C endpoint: median survival time, dose: 65.0 mg/kg/injection, schedule: Q01DX009 (sc), vehicle: Klucel (hydroxypropylcellulose) (HPC)); 140 % of control (T/C endpoint: median survival time, dose: 108.0 mg/kg/injection, schedule: Q01DX009 (sc), vehicle: Klucel (hydroxypropylcellulose) (HPC)); 130 % of control (T/C endpoint: median survival time, dose: 180.0 mg/kg/injection, schedule: Q01DX009 (sc), vehicle: Klucel (hydroxypropylcellulose) (HPC)). For the same compound, the T/C runs as follows: (T/C endpoint: median survival time, dose: 180.0 mg/kg/injection, schedule: Q04DX003 (sc), vehicle: Klucel (hydroxypropylcellulose) (HPC)) 135 % of control; (T/C endpoint: median survival time, dose: 200.0 mg/kg/injection, schedule: Q01DX009 (sc), vehicle: steroid suspending solution) 130 % of control; (T/C endpoint: median survival time, dose: 300.0 mg/kg/injection, schedule: Q04DX003 (sc), vehicle: Klucel (hydroxypropylcellulose) (HPC)) 145 % of control; (T/C endpoint: median survival time, dose: 400.0 mg/kg/injection, schedule: Q04DX003 (ip), vehicle: steroid suspending solution) 125 % of control; (T/C endpoint: median survival time, dose: 400.0 mg/kg/injection, schedule: Q04DX003 (sc), vehicle: steroid suspending solution) 145 % of control; (T/C endpoint: median survival time, dose: 500.0 mg/kg/injection, schedule: Q04DX003 (sc), vehicle: Klucel (hydroxypropylcellulose) (HPC)) 140 % of control. The T/C is 135 % of control (T/C endpoint: median survival time, dose: 800.0 mg/kg/injection, schedule: Q04DX003 (ip), vehicle: steroid suspending solution); 140 % of control (T/C endpoint: median survival time, dose: 833.0 mg/kg/injection, schedule: Q04DX003 (sc), vehicle: Klucel (hydroxypropylcellulose) (HPC)); 125 % of control (T/C endpoint: median survival time, dose: 1388.0 mg/kg/injection, schedule: Q04DX003 (sc), vehicle: Klucel (hydroxypropylcellulose) (HPC)).

As to `O=NN(CCCl)C(=O)N[C@H]1CCCC[C@@H]1Cl`, the T/C (T/C endpoint: median survival time, dose: 108.0 mg/kg/injection, schedule: Q01DX Z (oral), vehicle: carboxymethylcellulose (CMC)) was 136 % of control; the T/C (T/C endpoint: median survival time, dose: 108.0 mg/kg/injection, schedule: Q01DX Z (sc), vehicle: carboxymethylcellulose (CMC)) is 142 % of control; the T/C (T/C endpoint: median survival time, dose: 180.0 mg/kg/injection, schedule: Q01DX Z (sc), vehicle: carboxymethylcellulose (CMC)) was 125 % of control.

With `O=C(O)c1[nH]c(=O)[nH]c(=O)c1F`, the T/C is, setting by setting: (T/C endpoint: median survival time, dose: 4.0 mg/kg/injection, schedule: Q01DX Z (sc), vehicle: saline) 133 % of control; (T/C endpoint: median survival time, dose: 5.0 mg/kg/injection, schedule: Q01DX Z (sc), vehicle: methylcellulose (MC)) 135 % of control.

For the compound `CC(C)Sc1ncnc2nc[nH]c12`, the T/C under setting [1] is 145 % of control and the T/C (T/C endpoint: median survival time, dose: 300.0 mg/kg/injection, schedule: Q01DX Z (sc), vehicle: methylcellulose (MC)) is 135 % of control.

Regarding `Cc1c2ccncc2c(C)c2c1[nH]c1ccccc12`, the T/C runs as follows: (T/C endpoint: median survival time, dose: 20.0 mg/kg/injection, schedule: Q03HX008 (ip), vehicle: steroid suspending solution) 127 % of control; (T/C endpoint: median survival time, dose: 40.0 mg/kg/injection, schedule: Q03HX008 (sc), vehicle: steroid suspending solution) 133 % of control [7 of 8 alive].

As for `CC(=O)c1ccc(NC(=O)N(CCCl)N=O)cc1`, the T/C (T/C endpoint: median survival time, dose: 8.4 mg/kg/injection, schedule: Q01DX Z (sc), vehicle: carboxymethylcellulose (CMC)) was 127 % of control; the T/C (T/C endpoint: median survival time, dose: 14.0 mg/kg/injection, schedule: Q01DX Z (sc), vehicle: carboxymethylcellulose (CMC)) is 138 % of control; the T/C (T/C endpoint: median survival time, dose: 23.0 mg/kg/injection, schedule: Q01DX Z (sc), vehicle: carboxymethylcellulose (CMC)) is 144 % of control.

With `Cn1cnc([N+](=O)[O-])c1Sc1nc(N)nc2nc[nH]c12`, the T/C runs as follows: (T/C endpoint: median survival time, dose: 6.0 mg/kg/injection, schedule: Q01DX Z (sc), vehicle: methylcellulose (MC)) 127 and 140 % of control; (T/C endpoint: median survival time, dose: 8.4 mg/kg/injection, schedule: Q01DX Z (sc), vehicle: methylcellulose (MC)) 145 % of control [9 of 10 alive]; (T/C endpoint: median survival time, dose: 14.0 mg/kg/injection, schedule: Q01DX Z (sc), vehicle: methylcellulose (MC)) 145 % of control; (T/C endpoint: median survival time, dose: 23.0 mg/kg/injection, schedule: Q01DX Z (oral), vehicle: methylcellulose (MC)) 131 % of control; (T/C endpoint: median survival time, dose: 23.0 mg/kg/injection, schedule: Q01DX Z (sc), vehicle: methylcellulose (MC)) 140 % of control [8 of 10 alive]; (T/C endpoint: median survival time, dose: 39.0 mg/kg/injection, schedule: Q01DX Z (oral), vehicle: methylcellulose (MC)) 140 % of control [8 of 10 alive]. The T/C was 145 % of control (T/C endpoint: median survival time, dose: 39.0 mg/kg/injection, schedule: Q01DX Z (sc), vehicle: methylcellulose (MC)); 127 % of control (T/C endpoint: median survival time, dose: 47.0 mg/kg/injection, schedule: Q01DX Z (sc), vehicle: methylcellulose (MC)); 145 % of control (T/C endpoint: median survival time, dose: 65.0 mg/kg/injection, schedule: Q01DX Z (sc), vehicle: methylcellulose (MC)); 127 % of control (T/C endpoint: median survival time, dose: 78.0 mg/kg/injection, schedule: Q01DX Z (sc), vehicle: methylcellulose (MC)); 136 % of control (T/C endpoint: median survival time, dose: 108.0 mg/kg/injection, schedule: Q01DX Z (sc), vehicle: methylcellulose (MC)); 145 % of control (T/C endpoint: median survival time, dose: 180.0 mg/kg/injection, schedule: Q01DX Z (oral), vehicle: methylcellulose (MC)). The T/C is 127 % of control under setting [1]; 140 % of control (T/C endpoint: median survival time, dose: 300.0 mg/kg/injection, schedule: Q01DX Z (oral), vehicle: methylcellulose (MC)); 127 % of control (T/C endpoint: median survival time, dose: 500.0 mg/kg/injection, schedule: Q01DX Z (oral), vehicle: methylcellulose (MC)).

Consider `Nc1nc(N)c2nc(CN(CCO)c3ccc(C(=O)NC(CCC(=O)O)C(=O)O)cc3)cnc2n1` (centres undefined), for which the T/C (T/C endpoint: mean survival time, dose: 1.0 mg/kg/injection, schedule: Q01DX009 (ip), vehicle: sodium bicarbonate) is 145 % of control; the T/C (T/C endpoint: mean survival time, dose: 4.0 mg/kg/injection, schedule: Q04DX003 (ip), vehicle: sodium bicarbonate) is 132 % of control; the T/C (T/C endpoint: mean survival time, dose: 16.0 mg/kg/injection, schedule: Q04DX003 (ip), vehicle: sodium bicarbonate) was 144 % of control; the T/C (T/C endpoint: mean survival time, dose: 32.0 mg/kg/injection, schedule: Q04DX003 (ip), vehicle: sodium bicarbonate) is 148 % of control; the T/C (T/C endpoint: mean survival time, dose: 64.0 mg/kg/injection, schedule: Q04DX003 (ip), vehicle: sodium bicarbonate) was 125 % of control.

As for `C[n+]1ccc(Nc2ccc(NC(=O)c3ccc(Nc4cc[n+](C)c5ccc(N)cc45)cc3)cc2)cc1`, the T/C (T/C endpoint: median survival time, dose: 16.0 mg/kg/injection, schedule: Q01DX009 (ip), vehicle: Klucel (hydroxypropylcellulose) (HPC)) is 138 % of control [8 of 10 alive].

On to `C[C@@H](CN1CC(=O)NC(=O)C1)N1CC(=O)NC(=O)C1`, for which the T/C runs as follows: (T/C endpoint: median survival time, dose: 16.0 mg/kg/injection, schedule: Q01DX009 (ip), vehicle: water) 125 % of control; (T/C endpoint: median survival time, dose: 32.0 mg/kg/injection, schedule: Q01DX009 (ip), vehicle: water, evaluated on day 21) 128 % of control; (T/C endpoint: median survival time, dose: 32.0 mg/kg/injection, schedule: Q01DX009 (ip), vehicle: water, evaluated on day 30) 130 % of control; (T/C endpoint: median survival time, dose: 64.0 mg/kg/injection, schedule: Q01DX009 (ip), vehicle: water, evaluated on day 20) 126 % of control; (T/C endpoint: median survival time, dose: 64.0 mg/kg/injection, schedule: Q01DX009 (ip), vehicle: water, evaluated on day 21) 144 % of control; (T/C endpoint: median survival time, dose: 64.0 mg/kg/injection, schedule: Q01DX009 (ip), vehicle: water, evaluated on day 30) 138 % of control. Also, the T/C reads like this: (T/C endpoint: median survival time, dose: 128.0 mg/kg/injection, schedule: Q01DX009 (ip), vehicle: water) 144 % of control; (T/C endpoint: median survival time, dose: 256.0 mg/kg/injection, schedule: Q01DX009 (ip), vehicle: water, evaluated on day 21) 149 % of control [9 of 10 alive]; (T/C endpoint: median survival time, dose: 256.0 mg/kg/injection, schedule: Q01DX009 (ip), vehicle: water, evaluated on day 30) 125 % of control.

As to `Nc1ccc(OC(=O)Oc2ccc(N)cc2)cc1`, the T/C (T/C endpoint: median survival time, dose: 300.0 mg/kg/injection, schedule: Q01DX Z (sc), vehicle: carboxymethylcellulose (CMC)) was 127 % of control and the T/C (T/C endpoint: median survival time, dose: 500.0 mg/kg/injection, schedule: Q01DX Z (sc), vehicle: carboxymethylcellulose (CMC)) was 127 % of control.
